# The supplement of paper PMC10727501
# The list shows a part of the results. Repeats in this data set agree poorly, so a single value says little.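 Researchers measured free-swimming zebrafish larvae's O-bend response probability to dark flashes (naive: first five; training: remaining flashes of four 60-flash blocks; test: later 60-flash block) and OMR turning toward alternating leftward/rightward LED motion. Six treated larvae were compared to sixty 0.1% DMSO controls, with |SSMD|≥2 marking a hit.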
# Columns and labels:
# Conditions in all cases: 10 µM; pre-incubation: 30-90 min
# [1] = tested on: Danio rerio larvae (5 dpf, TLF); experiment: OMR-Perf (SSMD vs DMSO vehicle); higher = higher than vehicle (e.g. higher dark-flash O-bend response probability, or better optomotor performance)
# [2] = tested on: Danio rerio larvae (5 dpf, TLF); experiment: Prob-Test (SSMD vs DMSO vehicle); higher = higher than vehicle (e.g. higher dark-flash O-bend response probability, or better optomotor performance)
# [3] = tested on: Danio rerio larvae (5 dpf, TLF); experiment: Prob-Naive (SSMD vs DMSO vehicle); higher = higher than vehicle (e.g. higher dark-flash O-bend response probability, or better optomotor performance)
# [4] = tested on: Danio rerio larvae (5 dpf, TLF); experiment: Prob-Train (SSMD vs DMSO vehicle); higher = higher than vehicle (e.g. higher dark-flash O-bend response probability, or better optomotor performance)
SMILES,OMR-Perf [1],Prob-Test [2],Prob-Naive [3],Prob-Train [4]
CN(C)CCCN1c2ccccc2CCc2ccc(Cl)cc21.Cl [Clomipramine HCl],-1.17,-1.37,-1.1,-1.56
Cn1cc(C2=C(c3ccc(Cl)cc3Cl)C(=O)NC2=O)c2ccccc21,-0.557,-0.508,0.147,-0.611
NC(=O)c1noc([C@H](CCCC2CCCCC2)CC(=O)NO)n1,0.000579,0.23,-0.487,0.177
Cc1cnc(C(=O)O)c[n+]1[O-] [Acipimox],-0.35,-0.416,0.184,-0.636
"Cc1[nH]c(/C=C2\C(=O)Nc3ccccc32)c(C)c1CCC(=O)O [TSU-68 (SU6668, Orantinib)]",0.449,-0.127,-0.25,-0.514
COc1ccc(NS(=O)(=O)c2ccc(N)cc2)nn1 [Sulfamethoxypyridazine],-0.0842,-0.0136,0.448,0.241
CCn1cc(C(=O)O)c(=O)c2cc(F)c(N3CCNCC3)cc21 [Norfloxacin (Norxacin)],-0.25,0.0192,-0.0588,0.172
Nc1ccc(C(=O)[O-])c(O)c1.[Na+] [Sodium 4-Aminosalicylate],-0.291,-0.218,0,-0.335
Cc1ccc2nc(NCCN)c3ncc(C)n3c2c1,-0.281,-0.274,-0.32,-0.301
C=CCN1CCCC1CNC(=O)c1cc2nn[nH]c2cc1OC.Cl (stereo not drawn) [Alizapride HCl],-0.463,-0.404,0.312,-0.419
Oc1ccc(OC2CCCCO2)cc1 (stereo not drawn) [Deoxyarbutin],-0.0497,-0.227,0.7,0.0641
Cc1cc(Nc2cc(N3CCN(C)CC3)nc(/C=C/c3ccccc3)n2)n[nH]1,0.176,-0.0569,0.173,-0.683
CCc1c(C(=O)NCCc2ccc(N3CCCCC3)cc2)[nH]c2ccc(Cl)cc12,-0.212,0.291,0.614,0.424
CN1C(C(=O)Nc2ccccn2)=C(O)c2sc(Cl)cc2S1(=O)=O [Lornoxicam],-0.99,-1.3,0.13,-1.41
CC(C)(O)[C@H]1CC[C@@](C)([C@@H]2[C@@H](O)C[C@@]3(C)[C@@H]4C[C@H](O[C@@H]5O[C@H](CO)[C@@H](O)[C@H](O)[C@@H]5O)[C@H]5C(C)(C)[C@@H](O[C@@H]6OC[C@@H](O)[C@H](O)[C@H]6O)CC[C@@]56C[C@]46CC[C@]23C)O1 [Astragaloside A],-0.851,-0.377,0.173,-0.136
O=C(CCCN1CC=C(n2c(=O)[nH]c3ccccc32)CC1)c1ccc(F)cc1 [Droperidol],-1.03,-0.249,-0.0456,-0.0214
O=C(O)c1cc(=O)[nH]c(=O)[nH]1 [Orotic acid (6-Carboxyuracil)],-0.638,1.04,-0.0925,0.374
Nc1nnc(-c2cccc(Cl)c2Cl)c(N)n1 [Lamotrigine],0.0251,0.224,0.42,-0.25
CCN(CC)CC(=O)Nc1c(C)cccc1C [Lidocaine],-0.326,-0.53,0.182,-0.362
CN(C)/N=N/c1[nH]cnc1C(N)=O [Dacarbazine],-0.282,-0.233,0.214,-0.273
"Cc1c(C(=O)Nc2ccc(N3C[C@@H](C)O[C@@H](C)C3)nc2)cccc1-c1ccc(OC(F)(F)F)cc1 [LDE225 (NVP-LDE225,Erismodegib)]",-0.67,-1.03,0.028,-1.64
O=C(c1cn(Cc2cncn2Cc2ccc(Br)cc2)cc1-c1cccc2ccccc12)N1CCOCC1,-0.429,-1.07,0.0696,-0.114
Cc1n[nH]c2ccc(-c3cncc(OC[C@@H](N)Cc4ccccc4)c3)cc12,0.0731,0.184,-0.13,-0.436
C[N+](C)(C)CCOC(=O)CCC(=O)OCC[N+](C)(C)C.O.O.[Cl-].[Cl-] [Succinylcholine Chloride Dihydrate],-0.632,-0.308,0.0516,-0.949
COc1cc(NC(C)CCCN)c2ncccc2c1.O=P(O)(O)O.O=P(O)(O)O (stereo not drawn) [Primaquine Diphosphate],-0.17,0.0584,0.338,-0.457
CCOC(=O)[C@H](CCc1ccccc1)N[C@@H](C)C(=O)N1Cc2ccccc2C[C@H]1C(=O)O.Cl [Quinapril HCl],-0.392,0.513,0.105,0.297

# A different layout for three compounds above.
SMILES | OMR-Perf [1] | Prob-Test [2] | Prob-Naive [3] | Prob-Train [4]
Cc1n[nH]c2ccc(-c3cncc(OC[C@@H](N)Cc4ccccc4)c3)cc12 | 0.0731 | 0.184 | -0.13 | -0.436
C[N+](C)(C)CCOC(=O)CCC(=O)OCC[N+](C)(C)C.O.O.[Cl-].[Cl-] [Succinylcholine Chloride Dihydrate] | -0.632 | -0.308 | 0.0516 | -0.949
COc1cc(NC(C)CCCN)c2ncccc2c1.O=P(O)(O)O.O=P(O)(O)O (stereo not drawn) [Primaquine Diphosphate] | -0.17 | 0.0584 | 0.338 | -0.457

# Next records.

SMILES,OMR-Perf [1],Prob-Test [2],Prob-Naive [3],Prob-Train [4]
CCOc1ccc2nc(S(N)(=O)=O)sc2c1 [Ethoxzolamide],-0.919,-1.85,-1.05,-1.36
Cc1ccc(-c2nn(C(C)(C)C)c3ncnc(N)c23)cc1,-0.237,-1.57,-2.46,-2.35
COc1cc2ncnc(-n3nc(-c4ccccn4)nc3N)c2cc1OC,-0.704,-0.474,-0.559,-0.761
O=C(O)CCCc1c[nH]c2ccccc12 [3-Indolebutyric acid (IBA)],0.395,0.373,0.517,0.266
Nc1ncnc2c1c(-c1cnc3[nH]ccc3c1)nn2C1CCCC1,-0.728,-0.0186,-0.581,0.226
CC(/C=C/C(=O)NO)=C\[C@@H](C)C(=O)c1ccc(N(C)C)cc1 [Trichostatin A (TSA)],-0.254,-0.221,0.489,0.383
NC[C@@H]1O[C@H](O[C@H]2[C@@H](O)[C@H](O[C@@H]3[C@@H](O)[C@H](N)C[C@@H](N)[C@H]3O[C@H]3O[C@@H](CO)[C@@H](O)[C@H](O)[C@H]3N)O[C@@H]2CO)[C@H](N)[C@@H](O)[C@@H]1O.O=S(=O)(O)O [Paromomycin Sulfate],-0.063,0.119,0.0603,-0.309
CCCCOc1ccc(CC(=O)NO)cc1 [Bufexamac],-0.557,0.0158,-0.743,-0.866
CN1CCC(=C2c3ccccc3CC(=O)c3sccc32)CC1.O=C(O)/C=C/C(=O)O [Ketotifen Fumarate],0.25,-0.319,-0.027,-0.381
C[N+]1(C)[C@@H]2C[C@@H](OC(=O)C(O)(c3cccs3)c3cccs3)C[C@H]1[C@@H]1O[C@@H]12.O.[Br-] [Tiotropium Bromide hydrate],-0.68,-0.83,-0.0607,-0.776
COc1cc(C(C)=O)ccc1O [Apocynin],0.497,-0.0981,-0.265,-0.428
NC(=S)NN=Cc1ncccc1N [Triapine],-0.253,0.0817,0.0243,0.111
NC(=O)CC[C@H](N)C(=O)O [L-Glutamine],-0.139,-0.762,-0.142,-0.333
C[C@]1(C(=O)Nc2ccc(F)nc2)CCCN1c1nc(Nc2cc(C3CC3)[nH]n2)c2cccn2n1,0.137,-0.403,-0.455,-0.469
CC(C)(C)NC(=O)[C@@H]1CC[C@H]2[C@@H]3CC[C@H]4NC(=O)C=C[C@]4(C)[C@@H]3CC[C@]12C [Finasteride],0.399,0.313,-0.319,0.5
CC(=O)[C@@H]1CC[C@H]2[C@@H]3C=CC4=CC(=O)CC[C@@]4(C)[C@H]3CC[C@]12C [Dydrogesterone],-0.584,-1.31,-0.482,-1.08
Nc1nc(Nc2ccc(S(N)(=O)=O)cc2)nn1C(=O)c1c(F)cccc1F,0.235,-0.249,0.471,-0.0892
COc1ccc(-c2nc3cc(C4=NNC(=O)CC4C)ccc3[nH]2)cc1 (stereo not drawn) [Pimobendan],0.163,0.126,-0.487,0.0573
CCc1c(Cl)c(O)c(Cl)c(O)c1C(=O)O[C@H]1[C@H](O)[C@H](OC)[C@H](OC/C2=C\C=C\C[C@H](O)/C(C)=C\[C@H](CC)[C@H](O[C@@H]3OC(C)(C)[C@@H](OC(=O)C(C)C)[C@H](O)[C@H]3O)/C(C)=C/C(C)=C/C[C@H]([C@@H](C)O)OC2=O)O[C@@H]1C [Fidaxomicin],-0.202,-0.233,0.338,-0.101
CCOC(=O)c1c(C)n(C)c2ccc(O)cc12 [Mecarbinate],-0.115,-0.584,-0.435,-0.271
CCC1(c2ccccc2)C(=O)NCNC1=O [Primidone],-0.672,0.0651,0.375,-0.0956
O=C([O-])C(O)[C@H](O)[C@@H](O)[C@H](O)[C@H](O)CO.O=C([O-])C(O)[C@H](O)[C@@H](O)[C@H](O)[C@H](O)CO.[Ca+2] (stereo partly drawn) [Calcium Gluceptate],0.71,0.248,0.457,-0.143
CC(C)(C)c1cc(C(C)(C)C)c(NC(=O)c2c[nH]c3ccccc3c2=O)cc1O [Ivacaftor (VX-770)],-0.151,-0.28,0.0343,0.0758
N[C@@H](C(=O)N[C@@H]1C(=O)N2C(C(=O)O)=C(Cl)CS[C@H]12)c1ccccc1 [Cefaclor (Ceclor)],-0.458,-0.53,0.448,0.646
CN(C)c1ccc(-c2nc3c(N4CCN(CC(=O)Nc5nccs5)CC4)c(Cl)cnc3[nH]2)cc1,-0.177,-0.163,-0.043,-0.195
Nc1ncnc2[nH]cnc12 [Adenine],0.434,-0.419,0.549,-1.1
